# Source: PubChem BioAssay AID1224826 (NIAID, 2016)
# Assay: 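Regulators of Tlr4 signalling leading to Tnf-alpha expression in macrophages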 (primary screen)
# Cells: RAW264.7 G9 macrophages from mouse bearing reporters for p65 (GFP) and the Tnf promoter (mCherry)
# Knock-down reagent: siRNA pool against mouse genes, 100 nM
# Timing: 16 h of LPS stimulation, after 2 days of siRNA transfection
# Challenge: bacterial lipopolysaccharide (Salmonella minnesota R595), 10 ng/ml
# Measurement: 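Imaged Tnf reporter mCherry in nuclei, minus background, normalised per plate to the median and expressed as robust z-scores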
# Reading the numbers: Tnf reporter robust z-score: higher = stronger Tnf promoter reporter signal after LPS; Tnf reporter intensity: higher = stronger Tnf promoter reporter signal
# Hit rule: 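Called active when robust z-score is at most -1.3, matching the median of the Tlr4 knock-down control, or over 3; control wells and wells with under 50 cells never active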
# Meaning of the calls: active = Tnf reporter clearly lowered or raised; inactive = no clear change in Tnf reporter
# The deposit covers about 17,000 reagents; this is a part drawn at random. About 1,110 of all reagents (6.6%) were called active. 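Active means lowered or raised reporter signal; replicate intensities are raw and not normalised per plate.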
target gene,PubChem SID,Tnf reporter robust z-score,fewer than 50 cells in well,"Tnf reporter intensity, replicate 1","Tnf reporter intensity, replicate 2",Call
Rab11a (GeneID 53869),SID315471115,0.51,enough cells in well,361,241,inactive
Gbp4 (GeneID 17472),SID315467970,-0.02,enough cells in well,113,168,inactive
Nhlrc1 (GeneID 105193),SID315476475,-0.55,enough cells in well,184,86.9,inactive
Kif1c (GeneID 16562),SID315467617,-0.62,enough cells in well,181,125,inactive
Tspan4 (GeneID 64540),SID315472108,0.09,enough cells in well,128,90.4,inactive
Polk (GeneID 27015),SID315470513,,fewer than 50 cells per well; well left out of calls,48.4,76.4,inactive
Adgrl2 (GeneID 99633),SID315476187,0.83,enough cells in well,274,381,inactive
Mocs1 (GeneID 56738),SID315471662,-0.52,enough cells in well,261,133,inactive
B3galnt1 (GeneID 26879),SID315470456,1.45,enough cells in well,285,215,inactive
Psca (GeneID 72373),SID315474533,-0.14,enough cells in well,135,112,inactive
Nt5el (GeneID 66763),SID315472628,-0.73,enough cells in well,127,111,inactive
Or9m2 (GeneID 258639),SID315480295,-1.31,enough cells in well,116,74.7,active
Kazn (GeneID 71529),SID315474250,2.07,enough cells in well,314,277,inactive
4930465K10Rik (GeneID 67640),SID315473140,,fewer than 50 cells per well; well left out of calls,275,78.1,inactive
Lgi2 (GeneID 246316),SID315479879,-0.04,enough cells in well,176,154,inactive
Mrpl27 (GeneID 94064),SID315476026,2.16,enough cells in well,328,219,inactive
Crp (GeneID 12944),SID315466131,0.15,enough cells in well,163,218,inactive
BC049715 (GeneID 320135),SID315481235,-0.66,enough cells in well,90.1,122,inactive
Mcm5 (GeneID 17218),SID315467863,1.58,enough cells in well,479,252,inactive
Spc25 (GeneID 66442),SID315472446,1.2,enough cells in well,206,240,inactive
Nt5c1b (GeneID 70881),SID315474148,1.13,enough cells in well,277,193,inactive
Fndc9 (GeneID 320116),SID315481230,-0.91,enough cells in well,96,83.6,inactive
Eci3 (GeneID 69123),SID315473728,,fewer than 50 cells per well; well left out of calls,110,62.3,inactive
Clec3b (GeneID 21922),SID315469754,0.07,enough cells in well,192,166,inactive
Ankrd52 (GeneID 237615),SID315479355,-1.37,enough cells in well,124,79.8,active
Krtap16-3 (GeneID 71369),SID315477184,-0.68,enough cells in well,156,54.9,inactive
Cox7b (GeneID 66142),SID315472241,-0.3,enough cells in well,133,158,inactive
Fam110c (GeneID 104943),SID315476469,,fewer than 50 cells per well; well left out of calls,163,216,inactive
Ofd1 (GeneID 237222),SID315479333,1.18,enough cells in well,287,294,inactive
Ehf (GeneID 13661),SID315466466,-0.77,enough cells in well,160,182,inactive
Or8g21 (GeneID 258741),SID315480390,-0.08,enough cells in well,150,122,inactive
Cltb (GeneID 74325),SID315474939,-0.89,enough cells in well,168,150,inactive

Called active (from the list above):
target gene,PubChem SID,Tnf reporter robust z-score,fewer than 50 cells in well,"Tnf reporter intensity, replicate 1","Tnf reporter intensity, replicate 2",Call
Or9m2 (GeneID 258639),SID315480295,-1.31,enough cells in well,116,74.7,active
Ankrd52 (GeneID 237615),SID315479355,-1.37,enough cells in well,124,79.8,active

More entries follow.
target gene,PubChem SID,Tnf reporter robust z-score,fewer than 50 cells in well,"Tnf reporter intensity, replicate 1","Tnf reporter intensity, replicate 2",Call
Bicc1 (GeneID 83675),SID315475853,1.62,enough cells in well,185,233,inactive
Tmigd1 (GeneID 66601),SID315472533,2.55,enough cells in well,282,109,inactive
Nat8f3 (GeneID 93674),SID315475914,1.77,enough cells in well,270,272,inactive
Zfp445 (GeneID 235682),SID315479287,-1.02,enough cells in well,122,97.8,inactive
Ikbip (GeneID 67454),SID315473035,-0.25,enough cells in well,197,131,inactive
Ikbip (GeneID 67454),SID315473036,0.31,enough cells in well,267,79.5,inactive
Oaz3 (GeneID 53814),SID315471106,0.09,enough cells in well,250,186,inactive
Mrgprx3-ps (GeneID 100502859),SID315480896,-0.97,enough cells in well,132,221,inactive
Cfb (GeneID 14962),SID315467102,-1.65,enough cells in well,125,94.6,active
Mogat1 (GeneID 68393),SID315473521,2.78,enough cells in well,369,245,inactive
Pno1 (GeneID 66249),SID315472317,,fewer than 50 cells per well; well left out of calls,160,58,inactive
Pla2g3 (GeneID 237625),SID315479356,-0.82,enough cells in well,129,97.2,inactive
Kcnk10 (GeneID 72258),SID315474502,1.01,enough cells in well,284,102,inactive
Tmprss6 (GeneID 71753),SID315474309,,fewer than 50 cells per well; well left out of calls,44.3,59.2,inactive
Neurl3 (GeneID 214854),SID315477889,-0.76,enough cells in well,155,97.6,inactive
1700020M10Rik (GeneID 109011),SID315476772,,fewer than 50 cells per well; well left out of calls,76.7,14,inactive
Alad (GeneID 17025),SID315467772,2.09,enough cells in well,276,188,inactive
Gm14461 (GeneID 329436),SID315481527,0.01,enough cells in well,164,163,inactive
Zdhhc4 (GeneID 72881),SID315474639,-0.44,enough cells in well,105,78.3,inactive
Idua (GeneID 15932),SID315467374,0.67,enough cells in well,229,287,inactive
Msl1 (GeneID 74026),SID315474819,0.55,enough cells in well,217,75.1,inactive
Lysmd4 (GeneID 75099),SID315475075,,fewer than 50 cells per well; well left out of calls,217,46.8,inactive
Lrrc72 (GeneID 71156),SID315474193,-1.1,enough cells in well,120,84.7,inactive
Krr1 (GeneID 52705),SID315471006,2.22,enough cells in well,413,331,inactive
Map3k11 (GeneID 26403),SID315470380,,fewer than 50 cells per well; well left out of calls,108,136,inactive
Lax1 (GeneID 240754),SID315479523,0.3,enough cells in well,221,117,inactive
